# PubChem BioAssay AID1508597, Cure First – 2020
# Assay: 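Genes whose silencing sensitises or protects ovarian cancer cells against rucaparib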 (primary screen)
# Cell system: human ovarian carcinoma lines grown from tumours: OCI-P5x (papillary serous) and OCI-C5x (clear cell)
# Reagents: siRNA pool against human genes, 1.25 pmol siRNA per well
# Timing: 72 h or 96 h, depending on the cell culture
# Conditions: rucaparib 20 µM (about IC30) or vehicle, present until read-out
# Rucaparib or vehicle: Rucaparib
# Cell line: OCI-P5x (serous)
# Read-out: 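ATP luminescence measured at 72 or 96 h according to the culture, then normalised and expressed as percent viability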
# Direction: viability, normalised: higher = more viable cells remaining
# Hit rule: 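a well counts as a hit if its normalised viability is under 80 percent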
# Calls: active = viability under 80%; inactive = viability 80% or more
# This is an unselected part of the about 2,100 reagents, under one of the conditions tested. 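Calls flag viability under 80% in either arm, not effects specific to rucaparib; the reference for percent is not stated.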 Reagent sequences are not shown. Not given: the 100% reference.
Target gene,technical replicate,"viability, normalised (%)",activity call
EPAS1 (endothelial PAS domain protein 1),1,62.6,active
EPAS1 (endothelial PAS domain protein 1),2,61.2,active
EPAS1 (endothelial PAS domain protein 1),3,77.9,active
DHX33 (DEAH-box helicase 33),1,72.8,active
DHX33 (DEAH-box helicase 33),2,86.8,inactive
DHX33 (DEAH-box helicase 33),3,83.4,inactive
MDC1 (mediator of DNA damage checkpoint 1),1,87.8,inactive
MDC1 (mediator of DNA damage checkpoint 1),2,95.6,inactive
MDC1 (mediator of DNA damage checkpoint 1),3,66.8,active
PARP14 (poly(ADP-ribose) polymerase family member 14),1,43.1,active
PARP14 (poly(ADP-ribose) polymerase family member 14),2,55.6,active
PARP14 (poly(ADP-ribose) polymerase family member 14),3,47.3,active
EED (embryonic ectoderm development),1,34.3,active
EED (embryonic ectoderm development),2,23.4,active
EED (embryonic ectoderm development),3,35,active
CDKL3 (cyclin dependent kinase like 3),1,116,inactive
CDKL3 (cyclin dependent kinase like 3),2,92.9,inactive
CDKL3 (cyclin dependent kinase like 3),3,87.6,inactive
"PIKFYVE (phosphoinositide kinase, FYVE-type zinc finger containing)",1,130,inactive
"PIKFYVE (phosphoinositide kinase, FYVE-type zinc finger containing)",2,106,inactive
"PIKFYVE (phosphoinositide kinase, FYVE-type zinc finger containing)",3,95.7,inactive
RIOK1 (RIO kinase 1),1,125,inactive
RIOK1 (RIO kinase 1),2,115,inactive
RIOK1 (RIO kinase 1),3,95.9,inactive

Next part; the last 4 above are carried over.
Target gene,technical replicate,"viability, normalised (%)",activity call
"PIKFYVE (phosphoinositide kinase, FYVE-type zinc finger containing)",3,95.7,inactive
RIOK1 (RIO kinase 1),1,125,inactive
RIOK1 (RIO kinase 1),2,115,inactive
RIOK1 (RIO kinase 1),3,95.9,inactive
TSSK6 (testis specific serine kinase 6),1,91.5,inactive
TSSK6 (testis specific serine kinase 6),2,109,inactive
TSSK6 (testis specific serine kinase 6),3,94.8,inactive
CENPO (centromere protein O),1,73.2,active
CENPO (centromere protein O),2,59.6,active
CENPO (centromere protein O),3,62.2,active
AGK (acylglycerol kinase),1,72.6,active
AGK (acylglycerol kinase),2,54.1,active
AGK (acylglycerol kinase),3,64.3,active
KDR (kinase insert domain receptor),1,106,inactive
KDR (kinase insert domain receptor),2,57.8,active
KDR (kinase insert domain receptor),3,93.3,inactive
FOXC2 (forkhead box C2),1,48.4,active
FOXC2 (forkhead box C2),2,52.2,active
FOXC2 (forkhead box C2),3,51.8,active
NTRK3 (neurotrophic receptor tyrosine kinase 3),1,112,inactive
NTRK3 (neurotrophic receptor tyrosine kinase 3),2,110,inactive
NTRK3 (neurotrophic receptor tyrosine kinase 3),3,94.7,inactive
KMT2C (lysine methyltransferase 2C),1,75.5,active
KMT2C (lysine methyltransferase 2C),2,51.4,active
KMT2C (lysine methyltransferase 2C),3,72.5,active
PIK3R4 (phosphoinositide-3-kinase regulatory subunit 4),1,79,active
PIK3R4 (phosphoinositide-3-kinase regulatory subunit 4),2,94.1,inactive
PIK3R4 (phosphoinositide-3-kinase regulatory subunit 4),3,68.9,active
MARK1 (microtubule affinity regulating kinase 1),1,68.5,active
MARK1 (microtubule affinity regulating kinase 1),2,68.4,active
MARK1 (microtubule affinity regulating kinase 1),3,61.9,active
APPL1,1,81.5,inactive
APPL1,2,70,active
APPL1,3,81.9,inactive
PHF20L1 (PHD finger protein 20 like 1),1,43.2,active
PHF20L1 (PHD finger protein 20 like 1),2,35,active
PHF20L1 (PHD finger protein 20 like 1),3,43.8,active
